Laboratory results reported in patent publication US20050042624A1, “Tumor antigen” (Kyogo ITOH, priority 2001, published 2005).
Where two headings read alike, the source gives them in different places. Not every detail of the peptide structures is certain; ends, links or a residue may be inferred. Some of these results come from one statement about several compounds together. No end group written: not given here.

Columns and labels:
Type in all cases: cell-based, human
OK-PBMC = experiment: IFN-γ production from OK-PBMC against peptide-pulsed HLA-A0207 transfected COS-7 cells
Protocol: Mononuclear cell fractions were prepared from the peripheral blood of three HLA-A2^+ cancer patients (i.e., a colon cancer patient one who provided TIL used for establishing OK-CTL, another colon cancer patient two, and a metastatic melanoma patient) and cultured in the presence of IL-2 for 30 days. Then, their reactivity to the cDNA clone encoding the tumor antigen, which was obtained in Example 2, was examined in a manner similar to Example 2. In addition, their reactivity to the peptide encoded by the cDNA clone was examined in a manner similar to Example 3. At this time, analysis was also carried out in a similar manner using GK-CTL established from a tumor infiltrating lymphocyte of a pulmonary cancer tissue [Gomi, S. et al., J. Immunol., 163: 4994-5004, 1999.]
In addition, the IFN-γ production was inhibited bya monoclonal antibody against HLA class I antigen, CD8, or HLA-A2, but not inhibited by an anti-HLA class II antigen mAb, an anti-CD4 mAb, or an anti-CD14 mAb that was used as an isotype-matched control antibody.

OK-CTLd sublines = experiment: IFN-γ production from OK-CTLd sublines against peptide-pulsed T2 cells; details: for IFN-γ produced from OK-CTLd-9 subline / IFN-γ produced from OK-CTLd-9 subline (pg/ml): T2 cells pulsed with peptide
OK-CTLd = experiment: IFN-γ production from OK-CTLd against peptide-pulsed T2 cells (ELISA)

Sequence: YLGWQCLIAL [P440]
- enhancement of IFN-γ production from OK-PBMC by peptide (OK-PBMC): enhanced IFN-γ production from OK-PBMC in a dose dependent manner
- IFN-γ produced from OK-CTLd-9 subline (OK-CTLd sublines; CTL subline 9): 122 pg/mL
- IFN-γ produced from OK-CTLd-9 subline (OK-CTLd sublines; CTL subline 13): 102 pg/mL
- IFN-γ produced from OK-CTLd-9 subline (OK-CTLd sublines; CTL subline 24): 224 pg/mL
- IFN-γ produced from OK-CTLd-9 subline (OK-CTLd sublines; CTL subline 28): 536 pg/mL
- IFN-γ produced from OK-CTLd-9 subline (pg/ml) (OK-CTLd sublines; CTL subline 32): — (The symbol of “−” in Table 9 denotes that the amount of IFN-γ produced is 20 pg/ml or less)
- IFN-γ produced from OK-CTLd-9 subline (OK-CTLd sublines; CTL subline 33): 118 pg/mL
- IFN-γ produced from OK-CTLd-9 subline (OK-CTLd sublines; CTL subline 34): 498 pg/mL
- IFN-γ produced from OK-CTLd-9 subline (OK-CTLd sublines; CTL subline 38): 492 pg/mL
- IFN-γ produced from OK-CTLd-9 subline (OK-CTLd sublines; CTL subline 39): 650 pg/mL
- IFN-γ produced from OK-CTLd-9 subline (OK-CTLd sublines; CTL subline 40): 202 pg/mL
- IFN-γ produced from OK-CTLd-9 subline (pg/ml) (OK-CTLd sublines; CTL subline 43): — (The symbol of “−” in Table 9 denotes that the amount of IFN-γ produced is 20 pg/ml or less)
- IFN-γ produced from OK-CTLd-9 subline (OK-CTLd sublines; CTL subline 46): 150 pg/mL
- IFN-γ produced from OK-CTLd-9 subline (OK-CTLd sublines; CTL subline 48): 156 pg/mL
- IFN-γ produced from OK-CTLd-9 subline (pg/ml) (OK-CTLd sublines; CTL subline 49): — (The symbol of “−” in Table 9 denotes that the amount of IFN-γ produced is 20 pg/ml or less)
- IFN-γ produced from OK-CTLd-9 subline (pg/ml) (OK-CTLd sublines; CTL subline 51): — (The symbol of “−” in Table 9 denotes that the amount of IFN-γ produced is 20 pg/ml or less)
- IFN-γ produced from OK-CTLd-9 subline (OK-CTLd sublines; CTL subline 54): 180 pg/mL
- IFN-γ produced from OK-CTLd-9 subline (OK-CTLd sublines; CTL subline 56): 162 pg/mL
- IFN-γ produced from OK-CTLd-9 subline (OK-CTLd sublines; CTL subline 61): 180 pg/mL
- IFN-γ produced from OK-CTLd-9 subline (OK-CTLd sublines; CTL subline 65): 132 pg/mL
- IFN-γ produced from OK-CTLd-9 subline (OK-CTLd sublines; CTL subline 66): 192 pg/mL
- IFN-γ produced from OK-CTLd-9 subline (OK-CTLd sublines; CTL subline 68): 306 pg/mL
- IFN-γ produced from OK-CTLd-9 subline (OK-CTLd sublines; CTL subline 70): 198 pg/mL
- IFN-γ produced from OK-CTLd-9 subline (pg/ml) (OK-CTLd sublines; CTL subline 72): — (The symbol of “−” in Table 9 denotes that the amount of IFN-γ produced is 20 pg/ml or less)
- IFN-γ produced from OK-CTLd-9 subline (OK-CTLd sublines; CTL subline 81): 130 pg/mL
- IFN-γ produced from OK-CTLd-9 subline (OK-CTLd sublines; CTL subline 89): 123 pg/mL
- IFN-γ produced from OK-CTLd-9 subline (OK-CTLd sublines; CTL subline 91): 196 pg/mL
- IFN-γ produced from OK-CTLd-9 subline (pg/ml) (OK-CTLd sublines; CTL subline 96): — (The symbol of “−” in Table 9 denotes that the amount of IFN-γ produced is 20 pg/ml or less)
- number of OK-CTLd sublines that recognized the peptide (OK-CTLd sublines; among twenty-seven sublines of Table 9): twenty-one
- recognition of peptide by OK-CTLd, enhancement of IFN-γ production (OK-CTLd): recognized by OK-CTLd

Sequence: KLTGMAFRV [P1]
- IFN-γ produced from OK-CTLd-9 subline (pg/ml) (OK-CTLd sublines; CTL subline 9): — (The symbol of “−” in Table 9 denotes that the amount of IFN-γ produced is 20 pg/ml or less)
- IFN-γ produced from OK-CTLd-9 subline (pg/ml) (OK-CTLd sublines; CTL subline 13): — (The symbol of “−” in Table 9 denotes that the amount of IFN-γ produced is 20 pg/ml or less)
- IFN-γ produced from OK-CTLd-9 subline (pg/ml) (OK-CTLd sublines; CTL subline 24): — (The symbol of “−” in Table 9 denotes that the amount of IFN-γ produced is 20 pg/ml or less)
- IFN-γ produced from OK-CTLd-9 subline (pg/ml) (OK-CTLd sublines; CTL subline 28): — (The symbol of “−” in Table 9 denotes that the amount of IFN-γ produced is 20 pg/ml or less)
- IFN-γ produced from OK-CTLd-9 subline (pg/ml) (OK-CTLd sublines; CTL subline 32): — (The symbol of “−” in Table 9 denotes that the amount of IFN-γ produced is 20 pg/ml or less)
- IFN-γ produced from OK-CTLd-9 subline (pg/ml) (OK-CTLd sublines; CTL subline 33): — (The symbol of “−” in Table 9 denotes that the amount of IFN-γ produced is 20 pg/ml or less)
- IFN-γ produced from OK-CTLd-9 subline (pg/ml) (OK-CTLd sublines; CTL subline 34): — (The symbol of “−” in Table 9 denotes that the amount of IFN-γ produced is 20 pg/ml or less)
- IFN-γ produced from OK-CTLd-9 subline (OK-CTLd sublines; CTL subline 38): 100 pg/mL
- IFN-γ produced from OK-CTLd-9 subline (pg/ml) (OK-CTLd sublines; CTL subline 39): — (The symbol of “−” in Table 9 denotes that the amount of IFN-γ produced is 20 pg/ml or less)
- IFN-γ produced from OK-CTLd-9 subline (pg/ml) (OK-CTLd sublines; CTL subline 40): — (The symbol of “−” in Table 9 denotes that the amount of IFN-γ produced is 20 pg/ml or less)
- IFN-γ produced from OK-CTLd-9 subline (pg/ml) (OK-CTLd sublines; CTL subline 43): — (The symbol of “−” in Table 9 denotes that the amount of IFN-γ produced is 20 pg/ml or less)
- IFN-γ produced from OK-CTLd-9 subline (pg/ml) (OK-CTLd sublines; CTL subline 46): — (The symbol of “−” in Table 9 denotes that the amount of IFN-γ produced is 20 pg/ml or less)
- IFN-γ produced from OK-CTLd-9 subline (pg/ml) (OK-CTLd sublines; CTL subline 48): — (The symbol of “−” in Table 9 denotes that the amount of IFN-γ produced is 20 pg/ml or less)
- IFN-γ produced from OK-CTLd-9 subline (pg/ml) (OK-CTLd sublines; CTL subline 49): — (The symbol of “−” in Table 9 denotes that the amount of IFN-γ produced is 20 pg/ml or less)
- IFN-γ produced from OK-CTLd-9 subline (pg/ml) (OK-CTLd sublines; CTL subline 51): — (The symbol of “−” in Table 9 denotes that the amount of IFN-γ produced is 20 pg/ml or less)
- IFN-γ produced from OK-CTLd-9 subline (pg/ml) (OK-CTLd sublines; CTL subline 54): — (The symbol of “−” in Table 9 denotes that the amount of IFN-γ produced is 20 pg/ml or less)
- IFN-γ produced from OK-CTLd-9 subline (pg/ml) (OK-CTLd sublines; CTL subline 56): — (The symbol of “−” in Table 9 denotes that the amount of IFN-γ produced is 20 pg/ml or less)
- IFN-γ produced from OK-CTLd-9 subline (pg/ml) (OK-CTLd sublines; CTL subline 61): — (The symbol of “−” in Table 9 denotes that the amount of IFN-γ produced is 20 pg/ml or less)
- IFN-γ produced from OK-CTLd-9 subline (pg/ml) (OK-CTLd sublines; CTL subline 65): — (The symbol of “−” in Table 9 denotes that the amount of IFN-γ produced is 20 pg/ml or less)
- IFN-γ produced from OK-CTLd-9 subline (pg/ml) (OK-CTLd sublines; CTL subline 66): — (The symbol of “−” in Table 9 denotes that the amount of IFN-γ produced is 20 pg/ml or less)
- IFN-γ produced from OK-CTLd-9 subline (OK-CTLd sublines; CTL subline 68): 122 pg/mL
- IFN-γ produced from OK-CTLd-9 subline (pg/ml) (OK-CTLd sublines; CTL subline 70): — (The symbol of “−” in Table 9 denotes that the amount of IFN-γ produced is 20 pg/ml or less)
- IFN-γ produced from OK-CTLd-9 subline (pg/ml) (OK-CTLd sublines; CTL subline 72): — (The symbol of “−” in Table 9 denotes that the amount of IFN-γ produced is 20 pg/ml or less)
- IFN-γ produced from OK-CTLd-9 subline (pg/ml) (OK-CTLd sublines; CTL subline 81): — (The symbol of “−” in Table 9 denotes that the amount of IFN-γ produced is 20 pg/ml or less)
- IFN-γ produced from OK-CTLd-9 subline (pg/ml) (OK-CTLd sublines; CTL subline 89): — (The symbol of “−” in Table 9 denotes that the amount of IFN-γ produced is 20 pg/ml or less)
- IFN-γ produced from OK-CTLd-9 subline (pg/ml) (OK-CTLd sublines; CTL subline 91): — (The symbol of “−” in Table 9 denotes that the amount of IFN-γ produced is 20 pg/ml or less)
- IFN-γ produced from OK-CTLd-9 subline (pg/ml) (OK-CTLd sublines; CTL subline 96): — (The symbol of “−” in Table 9 denotes that the amount of IFN-γ produced is 20 pg/ml or less)
- recognition of peptide by OK-CTLd, enhancement of IFN-γ production (OK-CTLd; T2 cells pulsed with peptide (10 μM), E/T ratio=2, 18 h): recognized by OK-CTLd
